Measurements reported in PubChem BioAssay AID652272 (Drosophila RNAi Screening Center, 2013).

Aim: 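Finding fly genes that regulate Hedgehog signal transduction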 (primary screen)
System: Drosophila clone 8 (Cl8) cells
Reagent: long dsRNA against Drosophila genes
Measured: 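Firefly light from a Hedgehog-responsive ptc promoter reporter and Renilla reference light, both read on a plate reader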
Direction: firefly Hh reporter signal: higher = more ptc reporter light; Renilla reference signal: higher = more Renilla control light
Active means: 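Hit when the z-score averaged over two replicates is under -2 or over +3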
Calls: active = hit: reporter lowered or raised; inactive = not a hit
The deposit covers about 21,000 reagents; this is a random part of those with a known target gene and a result. In the full data, 503 (2.4%) are marked active. 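Raw plate light values, not normalised; calls rest on replicate z-scores that were not deposited; hits include reporter decreases as well as increases.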 A plus sign joins genes that one reagent is predicted to hit. Not stated in the record: the amount of reagent, the time to read-out.

| predicted target | DRSC id | firefly Hh reporter signal, replicate 1 | firefly Hh reporter signal, replicate 2 | firefly Hh reporter signal, replicate 3 | Renilla reference signal, replicate 1 | Renilla reference signal, replicate 2 | Call |
| --- | --- | --- | --- | --- | --- | --- | --- |
| CG17985 | DRSC06702 | 1.17e5 | 66427 | – | 3056 | 5837 | inactive |
| Idgf4 (Imaginal disc growth factor 4) | DRSC18675 | 75976 | 1.54e5 | – | 2168 | 6307 | inactive |
| CG3795 | DRSC18593 | 1.40e5 | 80819 | – | 3421 | 2593 | inactive |
| CG14695 | DRSC14918 | 59392 | 1.23e5 | – | 2157 | 3097 | inactive |
| pall (pallbearer) | DRSC10364 | 79171 | 42736 | – | 3784 | 1456 | inactive |
| CG7101 | DRSC20023 | 2.00e5 | 1.57e5 | – | 4796 | 3955 | inactive |
| CG8945 | DRSC20129 | 72346 | 2.73e5 | – | 1617 | 10788 | inactive |
| CG8945 | DRSC20130 | 69000 | 1.94e5 | – | 2170 | 8884 | inactive |
| CG11231 (retired record) | DRSC17207 | 79258 | 2.43e5 | – | 2653 | 9687 | inactive |
| CG15676 | DRSC04267 | 94468 | 59202 | – | 2428 | 5379 | inactive |
| Cdk5 (Cyclin-dependent kinase 5) | DRSC07359 | 1.12e5 | 79910 | – | 4627 | 3265 | inactive |
| CG13461 | DRSC10008 | 71912 | – | – | 4161 | 2134 | inactive |
| CG11279 | DRSC09837 | 51377 | 55250 | 43297 | 4192 | 3008 | inactive |
| CG3257 | DRSC04351 | 1.34e5 | 1.04e5 | – | 5268 | 4339 | inactive |
| CG17266 | DRSC04979 | 1.50e5 | 66058 | – | 3480 | 5609 | inactive |
| Smu1 (Smu1 spliceosomal factor) | DRSC15803 | 1.29e5 | 86296 | – | 5108 | 2948 | inactive |
| CG14052 | DRSC17907 | 83255 | 2.27e5 | – | 3273 | 10946 | inactive |
| CG14052 | DRSC18192 | 88700 | 2.32e5 | – | 3949 | 10705 | inactive |
| CG42853 | DRSC09534 | 2.22e5 | – | – | 4807 | – | inactive |
| stc (shuttle craft) | DRSC03620 | 67371 | 45095 | – | 2937 | 1836 | inactive |
| fd3F (forkhead domain 3F) | DRSC17843 | 31988 | 26877 | – | 2121 | 1104 | inactive |
| Obp19d (Odorant-binding protein 19d) | DRSC20569 | 82136 | 2.49e5 | – | 1446 | 9527 | inactive |
| Cdc5 (Cell division cycle 5) | DRSC08577 | 45190 | 46240 | – | 3211 | 2640 | active |
| CG5757 | DRSC06951 | 1.55e5 | 1.14e5 | – | 7399 | 5400 | inactive |
| Cht11 (Chitinase 11) | DRSC18270 | 80195 | 2.24e5 | – | 2785 | 7989 | inactive |
| Tsp96F (Tetraspanin 96F) | DRSC14147 | 71984 | 1.17e5 | – | 1522 | 3335 | inactive |
| Samuel | DRSC02156 | 77834 | 33651 | – | 2171 | 2663 | inactive |
| Samuel | DRSC02401 | 49440 | 20656 | – | 1444 | 1920 | inactive |
| Samuel | DRSC02402 | 1.74e5 | 85952 | – | 5079 | 8413 | inactive |
| Lkr (Leucokinin receptor) | DRSC09754 | 26704 | 62794 | – | 5280 | 4676 | inactive |
| CG5664 | DRSC11782 | 4.84e5 | 89734 | – | 4589 | 4589 | inactive |
| CG12640 | DRSC17847 | 70701 | 1.53e5 | – | 2738 | 6924 | inactive |
| CG13898 | DRSC08368 | 76568 | 53991 | – | 3093 | 3702 | inactive |
| OS9 + Hf | DRSC03392 | 82977 | 52035 | – | 3076 | 2403 | inactive |
| CG30065 | DRSC05420 | 1.42e5 | 2.04e5 | – | 3800 | 8557 | inactive |
| Mst57Da (Male-specific RNA 57Da) | DRSC16744 | 5.99e5 | 1.22e5 | – | 33177 | 4125 | inactive |
| CG4497 | DRSC02754 | 81943 | 67461 | – | 4018 | 3660 | inactive |

3 entries from above in another layout:
CG13898 [DRSC08368]
- firefly Hh reporter signal, replicate 1: 76568
- firefly Hh reporter signal, replicate 2: 53991
- Renilla reference signal, replicate 1: 3093
- Renilla reference signal, replicate 2: 3702
- Call: inactive

OS9 + Hf [DRSC03392]
- firefly Hh reporter signal, replicate 1: 82977
- firefly Hh reporter signal, replicate 2: 52035
- Renilla reference signal, replicate 1: 3076
- Renilla reference signal, replicate 2: 2403
- Call: inactive

CG30065 [DRSC05420]
- firefly Hh reporter signal, replicate 1: 1.42e5
- firefly Hh reporter signal, replicate 2: 2.04e5
- Renilla reference signal, replicate 1: 3800
- Renilla reference signal, replicate 2: 8557
- Call: inactive

Continued:
| predicted target | DRSC id | firefly Hh reporter signal, replicate 1 | firefly Hh reporter signal, replicate 2 | firefly Hh reporter signal, replicate 3 | Renilla reference signal, replicate 1 | Renilla reference signal, replicate 2 | Call |
| --- | --- | --- | --- | --- | --- | --- | --- |
| AANATL3 (Arylalkylamine N-acetyltransferase-like 3) | DRSC02089 | 73608 | 67442 | – | 2196 | 5825 | inactive |
| Cap-D3 + tomb | DRSC02347 | 1.02e5 | 49568 | – | 1778 | 4738 | inactive |
| CG32695 | DRSC17975 | 1.11e5 | 2.77e5 | – | 3200 | 11225 | inactive |
| HDAC1 (Histone deacetylase 1) | DRSC08696 | 94844 | 79161 | – | 3356 | 2258 | inactive |
| Pgam5-2 (Phosphoglycerate mutase 5-2) | DRSC04278 | 68953 | 65158 | – | 1440 | 5229 | inactive |
| CG5567 | DRSC10517 | 1.34e5 | 67277 | – | 4971 | 2979 | inactive |
| LysX (Lysozyme X) | DRSC08678 | 89347 | 54208 | – | 2579 | 4331 | inactive |
| E(z) (Enhancer of zeste) | DRSC11147 | 88409 | 98752 | – | 4051 | 4144 | inactive |
| pcm (pacman) | DRSC20361 | 98963 | 1.21e5 | – | 2352 | 2848 | inactive |
| mRpL36 (mitochondrial ribosomal protein L36) | DRSC10337 | 28251 | 73661 | – | 2281 | 5456 | inactive |
| CG34038 | DRSC04039 | 1.09e5 | 1.98e5 | – | 2928 | 8122 | inactive |
| car (carnation) | DRSC20316 | 1.65e5 | 1.43e5 | – | 3562 | 3640 | inactive |
| CG9445 | DRSC05006 | 1.08e5 | 81450 | – | 2556 | 5751 | inactive |
| CG4854 | DRSC15663 | 4.70e5 | 1.08e5 | – | 27194 | 3424 | inactive |
| Smr (Smrter) | DRSC19495 | 38952 | 24387 | – | 1075 | 741 | inactive |
| Smr (Smrter) | DRSC20288 | 27732 | 61335 | – | 1840 | 4797 | active |
| CG30428 | DRSC04041 | 94757 | 2.29e5 | – | 2594 | 9302 | inactive |
| Taf13 (TBP-associated factor 13) | DRSC02106 | 51063 | 27968 | – | 1570 | 3644 | inactive |
| CG4968 | DRSC02794 | 1.22e5 | 6.09e5 | 99746 | 4744 | 35693 | inactive |
| Smg6 | DRSC16029 | 1.69e5 | 1.70e5 | – | 5284 | 5328 | inactive |
| mRpL46 (mitochondrial ribosomal protein L46) | DRSC08391 | 54757 | 36198 | – | 1989 | 3181 | inactive |
| Irk1 (Inwardly rectifying potassium channel 1) | DRSC14686 | 5.21e5 | 1.20e5 | – | 25896 | 3691 | inactive |
| Irk1 (Inwardly rectifying potassium channel 1) | DRSC16106 | 4.03e5 | 90772 | – | 19463 | 2448 | inactive |
| CG9380 | DRSC04549 | 86248 | 69885 | – | 1892 | 6376 | inactive |
| CG33758 | DRSC05158 | 1.24e5 | 2.46e5 | – | 3440 | 10177 | inactive |
| CG5250 | DRSC15752 | 5.94e5 | 75244 | – | 31322 | 2061 | inactive |
| Fkbp59 (FK506-binding protein 59kD) | DRSC03323 | 75142 | 55412 | – | 2172 | 6137 | inactive |
| CG15701 | DRSC06572 | 54832 | 34386 | – | 1785 | 2820 | inactive |
| Gpdh1 (Glycerol-3-phosphate dehydrogenase 1) | DRSC03336 | 1.73e5 | 96384 | – | 5940 | 4673 | inactive |
| Nprl3 (Nitrogen permease regulator-like 3) | DRSC11044 | 90373 | 39034 | – | 2887 | 1465 | inactive |
| CG10993 | DRSC19362 | 1.51e5 | 2.64e5 | – | 4858 | 9963 | inactive |
| sNPF (short neuropeptide F precursor) | DRSC02309 | 94474 | 55091 | – | 2412 | 4997 | inactive |
| cGlr2 (cGAS-like receptor 2) | DRSC04017 | 65571 | 1.21e5 | – | 2890 | 8196 | active |
| lig (lingerer) | DRSC07246 | 48144 | 45664 | – | 3497 | 2432 | inactive |
| lig (lingerer) | DRSC07247 | 72620 | 32280 | – | 2484 | 3676 | inactive |
| Ilp3 (Insulin-like peptide 3) | DRSC10168 | 60358 | 70643 | 74860 | 6836 | 5616 | inactive |
